Several values for one entry are separate records, joined by “and”; a condition that tells them apart may be missing. Identical values can stand only once. This list was built around the results that the source calls inconclusive (neither active nor inactive); the mix of calls is not that of the screen. For part of these data: A potency beside an inconclusive call is a rough fit, not a confirmed value. Activity calls are given as the source filed them. Calls come from the whole dose curve; as a rule, active = well fitted curve in the direction sought with a large enough effect; inconclusive = small, poorly fitted or top-dose-only effect, or another doubt; inactive = no such curve, though single readings can be large; an effect the other way counts as inactive or inconclusive.
Legend:
[1] = Identifying Small Molecule Inhibitors of Pancreatic Cancer Stem Cells (A2780, Spheroid) (AID 1259357); conditions: Potency: A2780 spheroid viability; viability (percent of control): at 46.1 µM (top of the series); note: potency is the fitted concentration of half-maximal effect;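 note: spheroids pre-formed over 14 days in stem cell medium on hydrogel; compound exposure lasted 48 h before the ATP luminescence read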;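 for viability (percent of control): 100% = DMSO treated cells and 0% = wells without cells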
Summary of the method: (§1)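 Viability is scored by CellTiter-Glo luminescence 48 h after dosing, expressed as percent activity against vehicle and no-cell references. Spheroid formats rely on cells cultured 14 days in stem cell media beforehand.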

[2] = Identifying Small Molecule Inhibitors of Pancreatic Cancer Stem Cells (Panc1, Spheroid) (AID 1259359); conditions: Panc1 spheroid cancer stem cell viability; viability, % of control: at 46.1 µM (top of the series) unless noted;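 note: potency is the fitted concentration of half-maximal effect; compound exposure lasted 48 h before reading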
Summary of the method: (§2)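 Adherent (2D) versus sphere (3D) formats; spheres generated 14 d in SCM beforehand. Compound transferred by pin tool after 4 h, 48 h incubation, CellTiter-Glo endpoint.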

[3] = Identifying Small Molecule Inhibitors of Pancreatic Cancer Stem Cells (SN12C, Spheroid) (AID 1259360); conditions: Potency: SN12C spheroid viability; note: potency is the fitted concentration of half-maximal effect;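 for viability (% of control): 100% = DMSO-treated cells and 0% = wells without cells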
Summary of the method: as §1

[4] = Identifying Small Molecule Inhibitors of Pancreatic Cancer Stem Cells (A278, Adherent) (AID 1259361); note: nearly all actives have a fitted effect of over 35% in size;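 for viability (% of control): 100% = DMSO-treated cells and 0% = cell-free media-only wells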
Summary of the method: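 After a 4 h attachment period, compounds were pinned into wells and cultures held 48 h under standard incubator conditions. Viability was then measured as CellTiter-Glo luminescence following 10 min at room temperature.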

[5] = Identifying Small Molecule Inhibitors of Pancreatic Cancer Stem Cells (Panc1, Adherent) (AID 1259362); conditions: Potency: viability unless noted; viability, % of control: at 46.1 µM (top of the series) unless noted; note: potency is the fitted concentration of half-maximal effect
Summary of the method: as §2

[6] = qHTS of pediatric cancer cell lines to identify multiple opportunities for drug repurposing: Primary screen for Rh30 cells (AID 1347107); note: potency is the fitted concentration of half-maximal effect; nearly all actives have a fitted effect of over 75% in size
Summary of the method: (§3)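 Cells (500-1,000/well) in growth media were settled 5 h at 37 degrees C, then given compounds for 48 h. Viability was read as CellTiter-Glo luminescence. Primary runs used MIPE at 11 points (0.78 nM-46 µM) and NPC at 8 points (0.59 nM-46 µM); follow-ups used 11 points.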

[7] = Quantitative High-Throughput drug screen in 47 multiple myeloma cell lines against the NCATS MIPE library collection: KMS20_JCRB cell viability assay (AID 1918973); conditions: CellTiter-Glo ATP, 48 h; viability (% of DMSO): at 45.8 µM (top of the series); note: nearly all actives have a fitted effect of over 45% in size; note: potency is the fitted concentration of half-maximal effect
Summary of the method: (§4)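 CellTiter-Glo luminescence (ATP) after 48 h compound exposure, 37C/5% CO2; 500 cells/well; MIPE 4.0 approved/investigational drugs pinned in; DMSO = 100%, media only = 0% viability.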

[8] = Quantitative High-Throughput drug screen in 47 multiple myeloma cell lines against the NCATS MIPE library collection: KMS21BM_JCRB cell viability assay (AID 1918974); conditions: ATP luminescence, 48 h; viability: at 45.8 µM (top of the series); note: potency is the fitted concentration of half-maximal effect
Summary of the method: as §4

[9] = Quantitative High-Throughput drug screen in 47 multiple myeloma cell lines against the NCATS MIPE library collection: LP1_DSMZ cell viability assay (AID 1918982); note: nearly all actives have a fitted effect of over 35% in size; note: potency is the fitted concentration of half-maximal effect
Summary of the method: (§5)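 Readout: median RLU from CellTiter-Glo after 5 min at room temperature. Preceding step was 48 h drug treatment of 500 cells/well at 37 °C, 5% CO2, with DMSO-only and media-only control wells.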

HEK293 = assay: Cytotoxic Profiling of Annotated Libraries Using Quantitative High-Throughput Screening (AID 1296008); conditions: Five cell lines viability, CellTiter-Glo ATP luminescence, 48-72 h; max response: stronger effect = lower value; note: nearly all actives have a fitted effect of over 60% in size; note: potency is the fitted concentration of half-maximal effect; for max response: % is set by controls: 0 for no effect and ±100 for the full control effect
Summary of the method: (§6)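 Compounds were pin-transferred onto cells and incubated 48 or 72 hr at 37 degree Celsius, 95% humidity. CellTiter-Glo was added, plates sat 10 min at room temperature, then ATP-coupled luminescence was imaged as the viability read-out.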

[10] = Cell Proliferation Assay against the TMD8 Cell Line (Caspase readout at 16 hrs) (AID 651712); conditions: TMD8 lymphoma cells, caspase activation luminescence; caspase activation: at 46.1 µM (top of the series); note: potency is the fitted concentration of half-maximal effect;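 for caspase activation: 0% = DMSO and 100% = 9.2 µM bortezomib caspase activation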
Summary of the method: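 16 h, 37 °C, TMD8 (500 cells/well), RPMI/5% FBS no phenol red; Caspase-Glo 3/7, 15 min RT, luminescence; %act: DMSO 0, bortezomib 9.2 uM final 100.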

[11] = Cell Proliferation Assay against the TMD8 Cell Line (Caspase readout at 8 hrs) (AID 651713); conditions: TMD8 lymphoma cells, caspase activation luminescence; caspase activation: at 46.1 µM (top of the series); note: potency is the fitted concentration of half-maximal effect;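 for caspase activation: 0% = DMSO and 100% = 9.2 µM bortezomib caspase signal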
Summary of the method: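 Apoptosis readout: caspase 3/7 luminescence (Caspase-Glo), 15 min RT. Cells: TMD8, 500/well, RPMI + 5% FBS, no phenol red. Exposure 8 h, 37C. % activity vs DMSO = 0, bortezomib 9.2 uM final = 100.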

[12] = Quantitative High-Throughput drug screen in 47 multiple myeloma cell lines against the NCATS MIPE library collection: JIM1_ECACC cell viability assay (AID 1918964; note: potency is the fitted concentration of half-maximal effect)
Summary of the method: as §4

[13] = Quantitative High-Throughput drug screen in 47 multiple myeloma cell lines against the NCATS MIPE library collection: MOLP8_DSMZ cell viability assay (AID 1918977); conditions: MOLP8 myeloma viability, CellTiter-Glo ATP luminescence, 48 h; viability (% of control): at 45.8 µM (top of the series); note: potency is the fitted concentration of half-maximal effect; nearly all actives have a fitted effect of over 45% in size
Summary of the method: as §5

[14] = Quantitative High-Throughput drug screen in 47 multiple myeloma cell lines against the NCATS MIPE library collection: L363_DSMZ cell viability assay (AID 1918984); conditions: L363 myeloma viability, CellTiter-Glo ATP luminescence, 48 h; viability (% of control): at 45.8 µM (top of the series); note: potency is the fitted concentration of half-maximal effect; nearly all actives have a fitted effect of over 40% in size
Summary of the method: as §5

CRL-7250 = normal cell line; assay: Cytotoxic Profiling of Annotated Libraries Using Quantitative High-Throughput Screening (AID 1296008); conditions: Five cell lines viability, CellTiter-Glo ATP luminescence, 48-72 h; max response: stronger effect = lower value; note: nearly all actives have a fitted effect of over 60% in size; note: potency is the fitted concentration of half-maximal effect; for max response: % is set by controls: 0 for no effect and ±100 for the full control effect
Summary of the method: as §6

[15] = P-glycoprotein substrates identified in KB-8-5-11 adenocarcinoma cell line, qHTS therapeutic library screen (AID 1346987); note: % is set by controls: 0 for no effect and ±100 for the full control effect; nearly all actives have a fitted effect of over 65% in size
Summary of the method: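 In this qHTS, P-gp-rich KB-8-5-11 cells received library compounds across a concentration range. Viability was quantified by luminescence after 72 h at 37 degree C.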

[16] = qHTS of pediatric cancer cell lines to identify multiple opportunities for drug repurposing: Primary screen for BT-12 cells (AID 1347101); note: potency is the fitted concentration of half-maximal effect; nearly all actives have a fitted effect of over 25% in size
Summary of the method: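 Cells (500-1,000/well) rested 5 h, then received compounds for 48 h; metabolically active cells were measured by CellTiter-Glo luminescence. Final concentrations spanned up to 46 µM (MIPE, 11-point) or 0.59 nM-46 µM (NPC, 8-point) in primary screens, 11-point in follow-ups.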

[17] = qHTS of pediatric cancer cell lines to identify multiple opportunities for drug repurposing: Primary screen for Rh18 cells (AID 1347102); note: potency is the fitted concentration of half-maximal effect; nearly all actives have a fitted effect of over 65% in size
Summary of the method: as §3

[18] = qHTS of pediatric cancer cell lines to identify multiple opportunities for drug repurposing: Primary screen for Rh41 cells (AID 1347108); note: potency is the fitted concentration of half-maximal effect; nearly all actives have a fitted effect of over 70% in size
Summary of the method: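 500-1,000 cells/well; 5 h pre-incubation 37 °C/5% CO2; compound pinned; 48 h; CellTiter-Glo, 15 min RT; luminescence. MIPE 11-pt from 0.78 nM, NPC 8-pt from 0.59 nM final. Bortezomib 2.3 µM final as positive control.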

Question: With `C=C1C(=CC=C2CCC[C@]3(C)[C@@H]([C@H](C)C=C[C@H](C)C(C)C)CC[C@@H]23)C[C@@H](O)C[C@@H]1O` as the compound, how does the Potency [1] read?
Answer: inconclusive: 0.0042 µM [rising, full curve, poor fit]

Question: What about the Potency [2] of the same compound?
Answer: inconclusive: 52.6 µM [cytotoxic, partial curve, poor fit]

Question: What about the Potency [3] of the same compound?
Answer: inactive

Question: What about the IC50 (viability decrease) [4] of the same compound?
Answer: inconclusive: 23.5 µM [cytotoxic, partial curve]

Question: What about the Potency [5] of the same compound?
Answer: active: 26.4 µM

Question: And the Potency [6]?
Answer: active: 3.72 µM

Question: And the Potency [7]?
Answer: inconclusive: 2.64 µM [cytotoxic, full curve, poor fit]

Question: And the Potency [8]?
Answer: active: 0.0526 µM

Question: What about the Potency [9] of the same compound?
Answer: inconclusive: 8.33 µM [cytotoxic, full curve, poor fit]

Question: What about the Potency (HEK293) of the same compound?
Answer: inconclusive: 29.6 µM [inhibitor, single point]

Question: Which Potency [10] does the source give for `CCN(c1ccccc1)c1cc(NC)[n+](C)c(C)n1` here?
Answer: inactive

Question: And the Potency [11]?
Answer: inactive

Question: And the viability (percent of control) [1]?
Answer: inconclusive: 108%

Question: And the Potency [2]?
Answer: inconclusive: 0.0833 µM [rising, full curve, poor fit]

Question: What about the Potency [3] of the same compound?
Answer: inactive

Question: What about the IC50 (viability decrease) [4] of the same compound?
Answer: inactive

Question: And the Potency [12]?
Answer: inactive

Question: And the Potency [7]?
Answer: inactive

Question: What about the Potency [8] of the same compound?
Answer: active: 0.372 µM

Question: And the Potency [13]?
Answer: active: 2.09 µM

Question: What about the Potency [9] of the same compound?
Answer: inactive

Question: What about the Potency [14] of the same compound?
Answer: inconclusive: 1.32 µM [cytotoxic, full curve, poor fit]

Question: What about the max response (CRL-7250) of the same compound?
Answer: inactive: -1.6%

Question: Which results are given for `N#Cc1ccc(COC[C@H]2O[C@@H](n3c(NCc4ccc(Cl)c(Cl)c4)nc4c(N)ncnc43)[C@@H](O)[C@@H]2O)cc1`?
Answer: Potency [10]: inconclusive: 26.4 µM [activator, single point]; Potency [11]: active: 29.6 µM; viability (percent of control) [1]: inconclusive: 118%; Potency [2]: inconclusive: 18.7 µM [cytotoxic, partial curve, poor fit]; Potency [3]: inconclusive: 23.5 µM [cytotoxic, single point]; IC50 (viability decrease) [4]: inconclusive: 18.7 µM [cytotoxic, partial curve]; Potency [15]: inactive; Potency [16]: inconclusive: 19.3 µM [cytotoxic, partial curve]; Potency [17]: inconclusive: 18.7 µM [cytotoxic, partial curve]; Potency [6]: inconclusive: 10.5 µM [cytotoxic, partial curve]; Potency [18]: inconclusive: 7.43 µM [cytotoxic, partial curve]; Potency [12]: active: 3.72 µM; Potency [7]: inconclusive: 18.7 µM [cytotoxic, partial curve, poor fit]; Potency [8]: inconclusive: 37.2 µM [rising, partial curve]; Potency [13]: active: 16.6 µM; Potency [9]: inconclusive: 11.8 µM [cytotoxic, full curve, poor fit]; Potency [14]: inconclusive: 5.9 µM [cytotoxic, partial curve, poor fit]

Question: What does the source list for `C[C@@H]1CCN(C(=O)CC#N)C[C@@H]1N(C)c1ncnc2[nH]ccc12`?
Answer: Potency [10]: inactive; Potency [1]: inactive; Potency [2]: inconclusive: 0.0833 µM [cytotoxic, full curve, poor fit]; Potency [3]: inactive; IC50 (viability decrease) [4]: inactive; Potency [5]: inconclusive: 0.0012 µM [rising, full curve]

Question: Which results are given for `O=C(Nc1cc(C(F)(F)F)cc(C(F)(F)F)c1)c1cc(Cl)ccc1O`?
Answer: Potency [10]: active: 0.296 µM; Potency [11]: inconclusive: 1.32 µM [activator, full curve]; Potency [1]: active: 0.526 µM; Potency [2]: active: 0.372 µM; Potency [3]: active: 0.833 µM; IC50 (viability decrease) [4]: inconclusive: 0.469 µM [cytotoxic, full curve]; Potency [5]: active: 0.0332 µM; Potency [16]: active: 1.72 µM; Potency [17]: active: 4.18 µM; Potency [6]: inconclusive: 1.18 µM [cytotoxic, full curve]; Potency [18]: active: 2.35 µM; Potency [12]: active: 1.05 µM; Potency [8]: active: 0.526 µM; Potency [13]: active: 1.48 µM; Potency [9]: active: 0.469 µM; Potency (CRL-7250): active: 3.72 µM and active: 3.26 µM

Question: Which results are given for `COc1cc(C)c(Sc2cnc(NC(=O)c3ccc(CNC(C)C(C)(C)C)cc3)s2)cc1C(=O)N1CCN(C(C)=O)CC1` (stereo not given)?
Answer: Potency [10]: inconclusive: 33.2 µM [activator, single point]; Potency [11]: inconclusive: 33.2 µM [activator, single point]; Potency [1]: inconclusive: 0.0332 µM [rising, full curve, poor fit]; Potency [3]: inconclusive: 29.6 µM [cytotoxic, partial curve, poor fit]; IC50 (viability decrease) [4]: inconclusive: 18.7 µM [cytotoxic, partial curve]; Potency [17]: active: 14.8 µM; Potency [6]: inconclusive: 5.9 µM [cytotoxic, full curve]; Potency [12]: active: 1.48 µM; Potency [8]: inconclusive: 37.2 µM [rising, partial curve, poor fit]; Potency [13]: active: 8.33 µM; Potency [9]: active: 16.6 µM; Potency [14]: active: 2.96 µM; Potency (CRL-7250): inconclusive: 29.6 µM [inhibitor, single point]

Reference: PubChem BioAssay (NCATS)
